Results are given in words; binding and its absence hold for the method and conditions named. Binding seen in cells or lysates may run through a third protein. Some binding calls cover weakened binding; strength is not graded here.
How the values were obtained:
Test in all cases: co-IP
[1] = target: V5-tagged Keap1 (Kelch-like ECH-associated protein 1) (human) (UniProt Q14145)
[2] = target: Smad3-Flag (human) (UniProt P84022)
[3] = target: Smad2-Flag (human) (UniProt Q15796)
[4] = target: V5-tagged Keap1β (human) (UniProt Q14145)

Sequences of proteins named here, by UniProt entry; tags and fusion partners are left off. A change or cut given only in a name is not applied to a line headed by its entry. A line that says so, or that is headed by a name, gives the form on record, which may keep a tag or linker.
UniProt Q14145: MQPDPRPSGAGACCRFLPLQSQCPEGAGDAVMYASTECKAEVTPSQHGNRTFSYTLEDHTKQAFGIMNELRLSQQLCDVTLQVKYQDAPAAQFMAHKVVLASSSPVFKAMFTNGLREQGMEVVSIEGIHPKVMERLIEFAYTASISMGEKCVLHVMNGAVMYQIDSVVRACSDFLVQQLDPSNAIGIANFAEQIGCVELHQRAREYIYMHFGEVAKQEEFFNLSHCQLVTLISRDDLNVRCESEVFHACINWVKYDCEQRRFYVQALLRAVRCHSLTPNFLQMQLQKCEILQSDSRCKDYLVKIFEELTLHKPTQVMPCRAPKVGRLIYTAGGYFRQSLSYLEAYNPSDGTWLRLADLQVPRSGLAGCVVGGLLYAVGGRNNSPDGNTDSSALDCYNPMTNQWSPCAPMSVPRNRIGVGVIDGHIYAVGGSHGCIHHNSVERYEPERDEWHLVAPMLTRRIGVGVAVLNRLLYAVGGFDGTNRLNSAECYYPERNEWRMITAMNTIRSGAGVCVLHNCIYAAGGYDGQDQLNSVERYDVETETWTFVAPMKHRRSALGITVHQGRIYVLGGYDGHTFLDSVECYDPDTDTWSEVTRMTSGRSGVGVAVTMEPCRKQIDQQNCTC
UniProt P84022: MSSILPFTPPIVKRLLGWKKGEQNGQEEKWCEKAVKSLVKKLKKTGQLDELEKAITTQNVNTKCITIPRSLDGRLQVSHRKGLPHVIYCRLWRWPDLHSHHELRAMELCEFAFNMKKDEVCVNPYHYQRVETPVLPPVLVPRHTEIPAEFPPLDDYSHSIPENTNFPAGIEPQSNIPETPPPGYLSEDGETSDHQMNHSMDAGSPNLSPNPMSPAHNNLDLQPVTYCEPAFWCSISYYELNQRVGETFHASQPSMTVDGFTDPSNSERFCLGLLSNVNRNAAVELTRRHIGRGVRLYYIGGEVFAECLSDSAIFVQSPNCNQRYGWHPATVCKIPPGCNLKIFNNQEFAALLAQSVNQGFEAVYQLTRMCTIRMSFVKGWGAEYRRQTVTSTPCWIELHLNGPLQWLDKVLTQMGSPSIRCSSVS
UniProt Q15796: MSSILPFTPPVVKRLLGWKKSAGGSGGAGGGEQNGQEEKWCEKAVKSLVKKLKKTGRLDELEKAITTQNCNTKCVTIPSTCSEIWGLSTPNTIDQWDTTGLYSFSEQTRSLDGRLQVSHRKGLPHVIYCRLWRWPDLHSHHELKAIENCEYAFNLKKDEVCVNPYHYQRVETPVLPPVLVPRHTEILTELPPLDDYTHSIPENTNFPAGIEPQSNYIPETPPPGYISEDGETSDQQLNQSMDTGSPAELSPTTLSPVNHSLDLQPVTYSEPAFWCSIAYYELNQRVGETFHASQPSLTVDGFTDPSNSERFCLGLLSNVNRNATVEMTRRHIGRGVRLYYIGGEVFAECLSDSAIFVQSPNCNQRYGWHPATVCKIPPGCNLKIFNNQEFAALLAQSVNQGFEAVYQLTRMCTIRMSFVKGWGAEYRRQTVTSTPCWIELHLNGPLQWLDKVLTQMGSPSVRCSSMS
Smad2^△228-264-Flag (Q15796-1, form named): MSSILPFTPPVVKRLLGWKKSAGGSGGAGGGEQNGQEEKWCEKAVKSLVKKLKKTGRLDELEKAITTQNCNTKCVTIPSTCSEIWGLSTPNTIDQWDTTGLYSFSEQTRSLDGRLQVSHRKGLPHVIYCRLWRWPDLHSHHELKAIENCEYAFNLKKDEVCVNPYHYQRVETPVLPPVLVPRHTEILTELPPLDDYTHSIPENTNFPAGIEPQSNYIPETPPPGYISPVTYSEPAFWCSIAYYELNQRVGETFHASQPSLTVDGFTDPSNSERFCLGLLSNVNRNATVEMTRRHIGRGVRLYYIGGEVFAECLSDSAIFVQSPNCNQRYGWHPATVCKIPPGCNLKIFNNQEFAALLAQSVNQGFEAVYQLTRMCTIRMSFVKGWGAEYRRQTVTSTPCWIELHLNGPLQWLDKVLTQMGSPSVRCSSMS

Substance	binding [1]	binding [2]	binding [3]	binding [4]
Smad2^△228-264-Flag (from UniProt Q15796-1 1-467)	no binding			
V5-tagged Keap1β (from UniProt Q14145 32-624)		binds	binds	
V5-tagged Keap1 (Kelch-like ECH-associated protein 1) (from UniProt Q14145 1-624)		binds	binds	
Smad2-Flag (from UniProt Q15796-1 1-467)	binds			binds
Smad3-Flag (from UniProt P84022-1 1-425)	binds			binds
